The target of assay [1] is T1, myostatin (UniProt O14793).
T1 sequence (looked up): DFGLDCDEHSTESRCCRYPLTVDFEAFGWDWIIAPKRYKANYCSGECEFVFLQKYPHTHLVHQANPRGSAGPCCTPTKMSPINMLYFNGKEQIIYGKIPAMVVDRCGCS
The assay is described as follows: ELISA of free myostatin after exposure to ECM with immobilized MI. Background: ELISA stands for enzyme-linked immunosorbent assay.

In assay [2] the target is T1, myostatin. Put plainly: MI-D chain immobilized by FXIIIa on decellularized ECM, exposed to myostatin.

Results are given in words; binding and its absence hold for the method and conditions named. Some entries that bind do so weakly or less than the wild type. Sequences can lack the tags named with a protein.

From US20210138043A1 come the findings set out here.

With VATQGQCTRWPWMCPPQGWGPLKPAKSA [myostatin inhibitor (MI) with TG tag (IGF-I D chain attached to the C-terminus of the MI)], the binding entry in the assay with myostatin [1] and with myostatin [2] was “binds” each time.
